This note sets out measurements from patent publication US20260265238A1, “COMPOUNDS AND PHARMACEUTICAL COMPOSITIONS THAT DEGRADE SWI/SNF-RELATED MATRIX-ASSOCIATED ACTIN-DEPENDENT REGULATOR OF CHROMATIN SUBFAMILY A” (Plexium, Inc., priority 2023, published 2026).

The chains behind the UniProt entries cited, without tags or fusion partners.
UniProt P51531, whole entry: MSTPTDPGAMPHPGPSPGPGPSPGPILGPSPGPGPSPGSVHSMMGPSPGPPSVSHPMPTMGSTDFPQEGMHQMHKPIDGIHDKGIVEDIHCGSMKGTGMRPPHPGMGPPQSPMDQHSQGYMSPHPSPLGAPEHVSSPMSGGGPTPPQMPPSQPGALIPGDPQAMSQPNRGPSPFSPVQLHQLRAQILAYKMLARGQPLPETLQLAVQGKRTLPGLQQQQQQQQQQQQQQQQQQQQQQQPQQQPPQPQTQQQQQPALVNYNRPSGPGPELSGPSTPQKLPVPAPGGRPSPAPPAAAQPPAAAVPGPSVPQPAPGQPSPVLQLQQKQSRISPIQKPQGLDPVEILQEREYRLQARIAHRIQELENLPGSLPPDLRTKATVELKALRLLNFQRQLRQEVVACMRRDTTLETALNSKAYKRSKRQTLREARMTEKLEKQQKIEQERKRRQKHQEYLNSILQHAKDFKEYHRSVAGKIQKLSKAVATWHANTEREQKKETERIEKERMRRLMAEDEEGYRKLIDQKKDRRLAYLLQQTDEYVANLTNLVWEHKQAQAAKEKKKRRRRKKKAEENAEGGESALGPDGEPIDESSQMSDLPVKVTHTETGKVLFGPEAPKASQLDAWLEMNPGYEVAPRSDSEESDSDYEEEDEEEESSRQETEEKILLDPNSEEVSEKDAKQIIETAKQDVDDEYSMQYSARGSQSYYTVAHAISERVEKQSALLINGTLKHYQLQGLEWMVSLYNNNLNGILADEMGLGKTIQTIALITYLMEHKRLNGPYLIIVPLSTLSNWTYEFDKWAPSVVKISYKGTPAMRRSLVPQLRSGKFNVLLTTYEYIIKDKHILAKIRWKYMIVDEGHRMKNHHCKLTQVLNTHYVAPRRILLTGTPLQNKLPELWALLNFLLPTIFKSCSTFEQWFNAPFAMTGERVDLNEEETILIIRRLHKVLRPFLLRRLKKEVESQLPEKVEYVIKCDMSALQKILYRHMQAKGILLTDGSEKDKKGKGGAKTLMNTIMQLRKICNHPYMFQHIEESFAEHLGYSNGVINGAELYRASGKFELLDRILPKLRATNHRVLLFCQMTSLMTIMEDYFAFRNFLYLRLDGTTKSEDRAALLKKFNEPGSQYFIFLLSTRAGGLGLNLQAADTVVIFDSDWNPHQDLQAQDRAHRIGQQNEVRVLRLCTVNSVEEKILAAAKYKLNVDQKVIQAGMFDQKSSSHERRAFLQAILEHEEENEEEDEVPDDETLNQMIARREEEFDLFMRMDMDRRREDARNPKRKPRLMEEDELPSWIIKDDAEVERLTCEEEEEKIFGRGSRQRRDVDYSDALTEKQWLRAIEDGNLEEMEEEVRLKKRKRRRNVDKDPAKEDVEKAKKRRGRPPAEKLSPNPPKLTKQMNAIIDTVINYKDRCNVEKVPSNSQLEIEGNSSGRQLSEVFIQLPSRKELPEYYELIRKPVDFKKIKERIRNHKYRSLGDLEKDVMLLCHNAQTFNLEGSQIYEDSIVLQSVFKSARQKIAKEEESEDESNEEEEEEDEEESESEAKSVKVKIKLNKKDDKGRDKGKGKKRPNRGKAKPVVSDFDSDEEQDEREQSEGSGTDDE
UniProt P51532, whole entry: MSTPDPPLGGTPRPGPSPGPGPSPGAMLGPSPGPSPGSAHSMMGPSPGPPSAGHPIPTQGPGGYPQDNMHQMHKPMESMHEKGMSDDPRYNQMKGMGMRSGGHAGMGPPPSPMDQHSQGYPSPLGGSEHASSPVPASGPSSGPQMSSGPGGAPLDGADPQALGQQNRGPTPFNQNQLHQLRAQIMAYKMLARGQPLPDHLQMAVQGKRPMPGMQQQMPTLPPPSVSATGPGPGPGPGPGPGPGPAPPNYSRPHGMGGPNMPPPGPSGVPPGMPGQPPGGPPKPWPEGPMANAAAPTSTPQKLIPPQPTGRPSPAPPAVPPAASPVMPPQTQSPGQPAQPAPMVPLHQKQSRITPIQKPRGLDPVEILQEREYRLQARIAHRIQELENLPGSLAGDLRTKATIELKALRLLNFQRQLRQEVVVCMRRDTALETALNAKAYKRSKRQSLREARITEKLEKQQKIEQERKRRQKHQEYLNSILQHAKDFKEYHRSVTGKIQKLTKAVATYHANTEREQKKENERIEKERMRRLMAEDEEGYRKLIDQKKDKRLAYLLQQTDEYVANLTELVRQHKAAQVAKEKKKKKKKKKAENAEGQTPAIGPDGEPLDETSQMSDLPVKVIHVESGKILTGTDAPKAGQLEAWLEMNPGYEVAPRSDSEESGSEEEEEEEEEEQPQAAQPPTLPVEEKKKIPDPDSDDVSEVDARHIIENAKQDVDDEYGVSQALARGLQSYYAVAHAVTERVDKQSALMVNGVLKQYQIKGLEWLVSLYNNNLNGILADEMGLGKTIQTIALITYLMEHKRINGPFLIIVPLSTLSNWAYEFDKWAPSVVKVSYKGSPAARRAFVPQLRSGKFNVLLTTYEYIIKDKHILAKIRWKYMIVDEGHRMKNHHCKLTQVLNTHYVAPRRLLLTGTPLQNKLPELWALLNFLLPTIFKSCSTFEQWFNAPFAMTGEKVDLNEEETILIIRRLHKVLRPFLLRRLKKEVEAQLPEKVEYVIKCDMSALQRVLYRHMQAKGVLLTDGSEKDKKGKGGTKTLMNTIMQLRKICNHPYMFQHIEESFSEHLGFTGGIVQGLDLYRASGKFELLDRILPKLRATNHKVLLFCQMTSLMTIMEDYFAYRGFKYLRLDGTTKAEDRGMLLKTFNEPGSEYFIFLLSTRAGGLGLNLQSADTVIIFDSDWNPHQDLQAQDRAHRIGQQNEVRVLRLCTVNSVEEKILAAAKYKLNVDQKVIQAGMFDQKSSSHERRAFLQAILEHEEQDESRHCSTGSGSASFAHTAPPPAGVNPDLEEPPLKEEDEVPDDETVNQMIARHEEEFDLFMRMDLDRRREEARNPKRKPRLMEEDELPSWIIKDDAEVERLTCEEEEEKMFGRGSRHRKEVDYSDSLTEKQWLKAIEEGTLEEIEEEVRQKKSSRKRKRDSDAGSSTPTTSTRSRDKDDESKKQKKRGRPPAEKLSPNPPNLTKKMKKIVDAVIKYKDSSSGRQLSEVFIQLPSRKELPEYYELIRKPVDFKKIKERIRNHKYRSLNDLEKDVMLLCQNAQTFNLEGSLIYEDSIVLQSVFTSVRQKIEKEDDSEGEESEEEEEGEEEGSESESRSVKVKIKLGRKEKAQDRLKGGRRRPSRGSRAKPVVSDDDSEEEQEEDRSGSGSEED

In assay [1] the target is SMARCA2-HiBiT HeLa cells (protein which is expressed from the SMARCA2 gene) (Homo sapiens, UniProt P51531). The experiment in a line: SMARCA2 degradation assay (HiBiT-fusion HeLa cell line, 24 h, luminescence). How it is done:
(§1) SMARCA2 and SMARCA4 Degradation Assay
(§2) Degradation of protein which is expressed from the SMARCA2 and SMARCA4 genes was monitored using engineered HiBiT-fusion HeLa cell lines from Promega. In brief, 384-well white opaque plates (Greiner) were seeded with SMARCA2-HiBiT or SMARCA4-HiBiT HeLa cells at 8,000 cells/well and incubated overnight at 37° C. to allow cell attachment. After overnight incubation, test compounds were added in a 10-point dilution series (typically 10 μM to 300 pM) using a TECAN D300e Digital Dispenser, and plates were subsequently incubated for 24 hours at 37° C. 24-hours post-treatment, protein levels were quantified with the addition of HiBiT lytic buffer, LgBiT protein, and HiBiT substrate, according to manufacturer's specifications. Plates were incubated on an orbital plate shaker for 10 minutes at room temperature. Resulting luminescent values were read out using a ClarioStar plate reader and used to construct dose-response curves and calculation of degradation DC50s (GraphPad Prism).
(§3) Activity of the tested compounds is provided in Table 4 below as follows: A=DC50<0.050 μM; B=0.05 μM<DC50<0.50 μM; C=<0.5 μM<DC50<5.0 μM; D=DC50>5.0 μM. For SMARCA2 and SMARCA4 degradation activity @1 μM, +++=>70%; ++=30-70%; +=<30%.
Background: The HiBiT peptide binds its large partner to form an active luciferase.

Assay [2] has as its target SMARCA4-HiBiT HeLa cells (protein which is expressed from the SMARCA4 gene) (Homo sapiens, UniProt P51532). The experiment in a line: SMARCA4 degradation assay (HiBiT-fusion HeLa cell line, 24 h, luminescence). The procedure:
as §1, §2, §3

The match of structure and compound is tentative.

For `CC(C)C#Cc1cc(N2CCN(c3cc(-c4ccccc4O)nnc3N)CC[C@H]2C)ccn1`, the “SMARCA2 % Degradation @ 1 μM” value in assay [1] (1 μM) is “++ (++=30-70%)”. The DC50 in assay [1] (read-out: SMARCA2 DC50) and in assay [2] (read-out: SMARCA4 DC50) was 0.5 to 5 µM throughout. In assay [2] (1 μM), the “SMARCA4 % Degradation @ 1 μM” value was “+ (+=<30%)”.

The term DC50 denotes the concentration giving 50% degradation.
